According to article PMC6539845:
These are yes or no findings as the source states them, for the method shown. Some binding calls cover weakened binding; strength is not graded here.

Target: human proteasome α7 subunit, wild type (human) (UniProt P25788)
Assay: SEC; single proteins, 0.3–10 μM, Superose 6 increase 10/300 GL, 20 mM Tris-HCl (pH 8.0), 150 mM NaCl; both purified

binding: binds
Substance: human proteasome α7 subunit, wild type (from UniProt P25788 1-255)
